# Among all 580,000 compounds or so, about 6,100 (1.1%) were called active. Inconclusive results, whose numbers are uncertain, are shown with a selection of clear calls. The call rests on the fitted dose curve; in most records, active means well fitted inhibition curve with a large enough effect; inconclusive means small, poorly fitted or top-dose-only effect, or another doubt; inactive means no such curve, though single readings can be large or run the other way. Where the call is inconclusive, the potency comes from a doubtful curve fit.
# The chains behind the UniProt entries cited, without tags or fusion partners.
# UniProt P18054, whole entry, looked up: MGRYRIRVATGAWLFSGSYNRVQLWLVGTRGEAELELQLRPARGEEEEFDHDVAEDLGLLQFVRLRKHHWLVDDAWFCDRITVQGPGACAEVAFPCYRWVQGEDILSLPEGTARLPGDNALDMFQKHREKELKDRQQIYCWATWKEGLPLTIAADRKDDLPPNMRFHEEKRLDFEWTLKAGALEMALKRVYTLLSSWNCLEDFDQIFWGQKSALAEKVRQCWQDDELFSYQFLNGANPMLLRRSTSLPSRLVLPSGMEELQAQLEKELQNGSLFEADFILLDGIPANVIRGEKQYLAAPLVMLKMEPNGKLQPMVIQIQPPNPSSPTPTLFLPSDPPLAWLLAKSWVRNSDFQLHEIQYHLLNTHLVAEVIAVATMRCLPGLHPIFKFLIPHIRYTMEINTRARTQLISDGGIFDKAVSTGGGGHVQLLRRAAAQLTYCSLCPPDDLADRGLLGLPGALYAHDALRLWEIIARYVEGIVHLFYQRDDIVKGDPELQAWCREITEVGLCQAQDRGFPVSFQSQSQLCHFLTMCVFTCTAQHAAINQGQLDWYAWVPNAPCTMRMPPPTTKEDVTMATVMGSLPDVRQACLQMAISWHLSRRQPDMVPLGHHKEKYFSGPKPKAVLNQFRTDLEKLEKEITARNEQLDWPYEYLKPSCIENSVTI
# Biological target: Polyunsaturated fatty acid lipoxygenase ALOX12 (Homo sapiens) (UniProt P18054)
# Test: Primary qHTS assay for inhibitors of human arachidonate 12S-lipoxygenase (ALOX12): Round 2
# Details: purified 12hLO, xylenol orange hydroperoxide absorbance; activity change, negative = inhibition: at 108 µM (top of the series) unless noted
# Summary of the method: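 Purified human 12hLO at 150 nM in 25 mM Hepes, 0.01% Triton X-100, pH 7.0, preincubated 15 min at room temperature with compound. Reaction started with 40 uM arachidonic acid, 30 min at room temperature. Hydroperoxide measured by Fe-xylenol orange, 573/405 nm absorbance ratio.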
# On the % scale 0 is the no-effect control and ±100 the full control effect; potency means the concentration at half of the fitted maximal effect.
Compound,Potency,"activity change, negative = inhibition"
Oc1ccccc1-c1cc(-c2ccco2)[nH]n1,active: 20 µM,
COCCCn1cnc2oc3nc4ccccc4nc3c2c1=O,,inactive: 0%
COc1cc(OC)c(NC(=O)c2cnn(-c3ccccc3)c2-n2cccc2)cc1Cl,,inactive: -23.9%
N#CC1=C(N)OC2=C(C(=O)CC(c3ccccc3)C2)C1c1cccc(Cl)c1 (configuration not stated),"inconclusive: 22.4 µM [inhibitor, partial curve]",
Cc1cc(N2C(=O)C(O)=C(C(=O)c3ccco3)C2c2cccc(Cl)c2)no1 (configuration not stated),"inconclusive: 50.1 µM [inhibitor, partial curve, poor fit]",
CS(=O)(=O)N1CCCC(C(=O)NCCc2ccc(F)cc2)C1 (configuration not stated),"inconclusive: 70.8 µM [inhibitor, single point]",
COCCn1c(SCC(=O)Nc2cccc(F)c2)nc2c([nH]c3ccccc32)c1=O,"inconclusive: 25.1 µM [inhibitor, partial curve, poor fit]",
CCOC(=O)[C@H](CCc1ccccc1)N[C@H]1CS[C@H](c2cccs2)CN(CC(=O)O)C1=O,,inconclusive: -39.1% [inhibitor] [at 57.4 µM]
CC(NC(=O)CSc1ccc2ccccc2c1)c1ccc2c(c1)OCCO2 (configuration not stated),"inconclusive: 44.7 µM [inhibitor, partial curve, poor fit]",
Cc1cc(C)c2nc(-c3ccc(C)c(C)c3)cc(C(=O)O)c2c1,"inconclusive: 31.6 µM [inhibitor, partial curve, poor fit]",
C=C(CN(C)C)C(=O)c1ccc(OC2OC(COC(C)=O)C(OC(C)=O)C(OC(C)=O)C2OC(C)=O)cc1 (configuration not stated),"inconclusive: 35.5 µM [inhibitor, partial curve, poor fit]",
CCCN1C(SCC(=O)N2CCC(C)CC2)=NS(=O)(=O)c2ccccc21,,inactive: -11.8%
CNC(=O)NC(=O)Cn1nnc(-c2ccc(F)c(C)c2)n1,"inconclusive: 100 µM [inhibitor, partial curve, poor fit]",
COCCOC(=O)/C(C#N)=C\c1cc(Cl)c(O)c(OC)c1,"inconclusive: 17.8 µM [inhibitor, full curve, poor fit]",
COCCN(C(=O)CSc1nnc(-c2ccc(Cl)cc2)o1)c1c(N)n(CC(C)C)c(=O)[nH]c1=O,"inconclusive: 56.2 µM [inhibitor, partial curve, poor fit]",
CC1(c2ccccc2)NC(=O)N(CC(=O)Nc2ccc(S(=O)(=O)Nc3ncccn3)cc2)C1=O (configuration not stated),"inconclusive: 112 µM [inhibitor, partial curve, poor fit]",
FC(F)(F)c1ccc(Cl)c(N/N=C/c2ccccc2C(F)(F)F)c1,"inconclusive: 35.5 µM [inhibitor, partial curve]",

# 3 compounds from above, arranged by length of the SMILES, rising.
Compound,Potency,"activity change, negative = inhibition"
CNC(=O)NC(=O)Cn1nnc(-c2ccc(F)c(C)c2)n1,"inconclusive: 100 µM [inhibitor, partial curve, poor fit]",
CS(=O)(=O)N1CCCC(C(=O)NCCc2ccc(F)cc2)C1 (configuration not stated),"inconclusive: 70.8 µM [inhibitor, single point]",
N#CC1=C(N)OC2=C(C(=O)CC(c3ccccc3)C2)C1c1cccc(Cl)c1 (configuration not stated),"inconclusive: 22.4 µM [inhibitor, partial curve]",

# Reference: PubChem BioAssay AID1671190 (National Center for Advancing Translational Sciences (NCATS), 2021)
